Test results published in publication PMC12706077.
Results are given in words; binding and its absence hold for the method and conditions named. Some results given as binding are weak or reduced against the parent protein; the word gives no strength. Sequences can lack the tags named with a protein.

Protein sequences, listed by entry. Tags and fused reporters are not part of them. Residues count along the entry.
UniProt P40189, residues 23-918: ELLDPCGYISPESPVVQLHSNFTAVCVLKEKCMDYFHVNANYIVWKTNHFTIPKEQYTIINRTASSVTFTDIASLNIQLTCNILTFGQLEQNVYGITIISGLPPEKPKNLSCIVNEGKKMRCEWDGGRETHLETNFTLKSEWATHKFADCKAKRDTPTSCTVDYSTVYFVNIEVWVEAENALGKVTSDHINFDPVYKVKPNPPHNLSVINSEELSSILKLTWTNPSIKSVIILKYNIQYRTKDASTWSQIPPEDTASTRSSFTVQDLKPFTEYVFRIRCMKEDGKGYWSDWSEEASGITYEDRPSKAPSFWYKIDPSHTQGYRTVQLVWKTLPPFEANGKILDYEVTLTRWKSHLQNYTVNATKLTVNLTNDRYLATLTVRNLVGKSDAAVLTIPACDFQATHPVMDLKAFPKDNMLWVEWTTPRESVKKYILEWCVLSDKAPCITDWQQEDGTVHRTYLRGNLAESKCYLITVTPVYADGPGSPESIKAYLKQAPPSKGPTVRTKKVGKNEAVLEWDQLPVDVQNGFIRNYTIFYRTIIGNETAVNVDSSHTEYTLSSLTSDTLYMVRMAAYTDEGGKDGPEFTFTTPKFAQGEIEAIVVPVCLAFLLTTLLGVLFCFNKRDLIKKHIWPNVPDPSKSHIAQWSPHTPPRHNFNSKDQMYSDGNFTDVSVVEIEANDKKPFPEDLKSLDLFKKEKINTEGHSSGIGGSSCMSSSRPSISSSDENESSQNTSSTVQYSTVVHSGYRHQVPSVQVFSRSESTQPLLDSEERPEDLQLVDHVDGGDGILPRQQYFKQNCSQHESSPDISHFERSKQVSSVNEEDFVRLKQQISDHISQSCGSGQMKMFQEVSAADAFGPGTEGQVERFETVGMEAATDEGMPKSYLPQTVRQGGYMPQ

Target: IL6ST (gp130) (human (endogenous in kidney tissue)) (UniProt P40189)
Assay: thermal proteome profiling - proteome integral solubility alteration assay (TPP-PISA); 1 or 10 µM C3-LHF1 added to human kidney tissue lysate (50 mM HEPES pH 7.4/100 mM NaCl/2.5 mM EDTA), 1 h at 37 °C; heat denaturation 5 min at 53/56/59 °C, pooled; soluble proteins by mass spectrometry; n = 3 technical replicates; only the binder purified

B1: C3-LHF1 (C3, lupus-associated human fragment 1), recombinant, C-terminally His-tagged (domain or fragment)
chain: AEENCFIQKSDDKVTLEERLDKACEPGVDYVYKTRLVKVQLSNDFDEYIMAIEQTIKSGSDEVQVGQQRTFISPIKCREALKLEEKKHYLMWGLSSDFWGEKPNLSYIIGKDTWVEHWPEEDECQDEENQKQCQDLGAFTESMVVFGCPN
For B1, the binding was “binds”.
